From the supplement of paper PMC6411743
± gives the standard deviation of the averaged measurements. The entries are a selection whose mix differs from that of the whole data set.

How the values were obtained:
Assay in all cases: NP40-soluble protein abundance relative to vehicle (solubility fold change) (ratio); higher = more soluble protein in presence of ATP
[1] = molecular target: T1, E7EMK3 and related entries (UniProt Q14254)
T1 sequence (whole entry): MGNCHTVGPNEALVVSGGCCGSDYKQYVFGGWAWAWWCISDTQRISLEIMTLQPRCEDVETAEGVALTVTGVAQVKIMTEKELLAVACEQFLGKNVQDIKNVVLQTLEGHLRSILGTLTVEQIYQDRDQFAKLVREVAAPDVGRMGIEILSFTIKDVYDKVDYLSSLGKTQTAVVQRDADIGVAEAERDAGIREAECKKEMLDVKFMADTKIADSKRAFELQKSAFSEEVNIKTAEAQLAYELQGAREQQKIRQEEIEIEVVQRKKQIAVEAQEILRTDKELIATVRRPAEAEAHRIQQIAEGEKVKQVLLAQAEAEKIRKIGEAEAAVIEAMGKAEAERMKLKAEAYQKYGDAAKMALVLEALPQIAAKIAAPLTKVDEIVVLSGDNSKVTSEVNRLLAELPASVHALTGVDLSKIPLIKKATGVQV
How it was run: (§1)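 Jurkat crude lysate prepared with a Dounce homogeniser was treated at eight concentrations spanning 0.1 to 10 mM, 10 min at room temperature then 3 min at 37 °C. Solubilisation with 0.8% NP40 and benzonase and ultracentrifugation preceded TMT labelling of the supernatant for LC-MS/MS. Fold change against the detergent-processed vehicle was determined per replicate from vsn-normalised intensities, across three independent experiments.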

[2] = molecular target: T2, E7EQ69 and related entries (UniProt Q9GZZ1)
T2 sequence (whole entry): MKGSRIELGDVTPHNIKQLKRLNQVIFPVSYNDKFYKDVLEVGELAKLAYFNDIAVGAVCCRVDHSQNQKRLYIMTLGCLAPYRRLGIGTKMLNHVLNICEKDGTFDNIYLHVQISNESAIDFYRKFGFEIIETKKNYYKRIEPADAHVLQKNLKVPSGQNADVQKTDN
How it was run: as §1

[3] = molecular target: T3, E7ER26 and related entries (UniProt P57071)
T3 sequence (whole entry): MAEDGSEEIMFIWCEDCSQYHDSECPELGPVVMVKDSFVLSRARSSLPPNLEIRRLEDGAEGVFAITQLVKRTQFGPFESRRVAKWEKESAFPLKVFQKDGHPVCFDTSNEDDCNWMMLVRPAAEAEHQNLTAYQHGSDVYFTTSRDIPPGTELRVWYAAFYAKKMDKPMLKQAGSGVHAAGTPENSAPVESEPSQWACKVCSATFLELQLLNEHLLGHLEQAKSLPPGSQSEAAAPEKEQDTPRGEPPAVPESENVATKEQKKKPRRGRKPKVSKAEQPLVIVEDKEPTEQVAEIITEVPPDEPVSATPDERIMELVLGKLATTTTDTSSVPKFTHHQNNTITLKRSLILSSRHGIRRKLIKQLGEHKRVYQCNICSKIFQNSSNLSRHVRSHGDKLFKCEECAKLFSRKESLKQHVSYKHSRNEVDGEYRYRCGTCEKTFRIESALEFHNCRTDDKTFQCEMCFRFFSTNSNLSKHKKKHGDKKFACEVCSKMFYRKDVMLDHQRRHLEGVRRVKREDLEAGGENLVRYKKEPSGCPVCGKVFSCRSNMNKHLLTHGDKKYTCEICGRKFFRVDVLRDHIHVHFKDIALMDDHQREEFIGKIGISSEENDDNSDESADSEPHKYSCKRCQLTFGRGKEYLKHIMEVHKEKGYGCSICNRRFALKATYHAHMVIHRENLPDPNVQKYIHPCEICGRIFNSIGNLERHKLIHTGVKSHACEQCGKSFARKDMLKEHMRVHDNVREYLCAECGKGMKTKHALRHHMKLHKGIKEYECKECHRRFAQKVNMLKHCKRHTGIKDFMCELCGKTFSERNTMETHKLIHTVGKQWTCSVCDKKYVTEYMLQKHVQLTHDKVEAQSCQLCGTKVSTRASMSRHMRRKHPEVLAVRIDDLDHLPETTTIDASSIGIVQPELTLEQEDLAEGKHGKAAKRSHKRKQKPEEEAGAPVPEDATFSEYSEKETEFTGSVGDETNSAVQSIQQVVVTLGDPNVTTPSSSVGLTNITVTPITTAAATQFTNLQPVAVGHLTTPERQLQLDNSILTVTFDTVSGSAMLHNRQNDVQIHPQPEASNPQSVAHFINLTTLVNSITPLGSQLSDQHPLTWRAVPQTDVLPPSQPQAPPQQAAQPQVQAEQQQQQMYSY
How it was run: as §1

[4] = molecular target: T4, E7ESC7 and related entries (UniProt Q7L5Y9)
T4 sequence (whole entry): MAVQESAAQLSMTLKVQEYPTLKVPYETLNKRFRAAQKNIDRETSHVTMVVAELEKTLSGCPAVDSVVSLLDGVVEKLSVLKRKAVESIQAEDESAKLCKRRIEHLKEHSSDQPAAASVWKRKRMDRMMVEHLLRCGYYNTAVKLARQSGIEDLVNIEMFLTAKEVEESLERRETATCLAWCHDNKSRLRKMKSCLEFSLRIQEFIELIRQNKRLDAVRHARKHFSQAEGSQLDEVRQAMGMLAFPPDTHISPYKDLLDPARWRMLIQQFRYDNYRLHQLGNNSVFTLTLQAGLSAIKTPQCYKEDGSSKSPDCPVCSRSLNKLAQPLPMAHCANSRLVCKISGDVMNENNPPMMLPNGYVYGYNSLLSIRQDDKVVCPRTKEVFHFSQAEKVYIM
How it was run: as §1

[5] = molecular target: T5, E9PCW1 and related entries (UniProt O95249)
T5 sequence (whole entry): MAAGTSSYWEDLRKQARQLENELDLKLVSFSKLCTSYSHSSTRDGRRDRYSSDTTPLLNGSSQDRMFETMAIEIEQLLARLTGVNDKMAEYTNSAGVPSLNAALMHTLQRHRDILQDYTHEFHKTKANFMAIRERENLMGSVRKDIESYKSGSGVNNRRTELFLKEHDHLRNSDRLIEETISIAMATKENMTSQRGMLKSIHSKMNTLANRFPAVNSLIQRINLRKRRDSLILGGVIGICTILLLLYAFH
How it was run: as §1

[6] = molecular target: T6, E9PDQ8 and related entries (UniProt Q96I99)
T6 sequence (whole entry): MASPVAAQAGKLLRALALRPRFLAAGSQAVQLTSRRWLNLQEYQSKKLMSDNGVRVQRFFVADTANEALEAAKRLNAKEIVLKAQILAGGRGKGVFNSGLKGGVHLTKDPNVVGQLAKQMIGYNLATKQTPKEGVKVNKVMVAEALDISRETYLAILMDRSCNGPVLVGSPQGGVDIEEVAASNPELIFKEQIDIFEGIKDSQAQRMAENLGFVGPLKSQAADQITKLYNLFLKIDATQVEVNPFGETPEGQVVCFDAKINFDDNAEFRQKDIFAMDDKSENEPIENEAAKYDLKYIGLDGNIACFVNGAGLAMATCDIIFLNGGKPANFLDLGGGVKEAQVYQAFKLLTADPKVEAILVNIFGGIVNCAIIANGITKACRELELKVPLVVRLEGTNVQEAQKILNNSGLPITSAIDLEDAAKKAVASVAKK
How it was run: as §1

[7] = molecular target: T7, E9PFB9 and related entries (UniProt Q5T9S5)
T7 sequence (whole entry): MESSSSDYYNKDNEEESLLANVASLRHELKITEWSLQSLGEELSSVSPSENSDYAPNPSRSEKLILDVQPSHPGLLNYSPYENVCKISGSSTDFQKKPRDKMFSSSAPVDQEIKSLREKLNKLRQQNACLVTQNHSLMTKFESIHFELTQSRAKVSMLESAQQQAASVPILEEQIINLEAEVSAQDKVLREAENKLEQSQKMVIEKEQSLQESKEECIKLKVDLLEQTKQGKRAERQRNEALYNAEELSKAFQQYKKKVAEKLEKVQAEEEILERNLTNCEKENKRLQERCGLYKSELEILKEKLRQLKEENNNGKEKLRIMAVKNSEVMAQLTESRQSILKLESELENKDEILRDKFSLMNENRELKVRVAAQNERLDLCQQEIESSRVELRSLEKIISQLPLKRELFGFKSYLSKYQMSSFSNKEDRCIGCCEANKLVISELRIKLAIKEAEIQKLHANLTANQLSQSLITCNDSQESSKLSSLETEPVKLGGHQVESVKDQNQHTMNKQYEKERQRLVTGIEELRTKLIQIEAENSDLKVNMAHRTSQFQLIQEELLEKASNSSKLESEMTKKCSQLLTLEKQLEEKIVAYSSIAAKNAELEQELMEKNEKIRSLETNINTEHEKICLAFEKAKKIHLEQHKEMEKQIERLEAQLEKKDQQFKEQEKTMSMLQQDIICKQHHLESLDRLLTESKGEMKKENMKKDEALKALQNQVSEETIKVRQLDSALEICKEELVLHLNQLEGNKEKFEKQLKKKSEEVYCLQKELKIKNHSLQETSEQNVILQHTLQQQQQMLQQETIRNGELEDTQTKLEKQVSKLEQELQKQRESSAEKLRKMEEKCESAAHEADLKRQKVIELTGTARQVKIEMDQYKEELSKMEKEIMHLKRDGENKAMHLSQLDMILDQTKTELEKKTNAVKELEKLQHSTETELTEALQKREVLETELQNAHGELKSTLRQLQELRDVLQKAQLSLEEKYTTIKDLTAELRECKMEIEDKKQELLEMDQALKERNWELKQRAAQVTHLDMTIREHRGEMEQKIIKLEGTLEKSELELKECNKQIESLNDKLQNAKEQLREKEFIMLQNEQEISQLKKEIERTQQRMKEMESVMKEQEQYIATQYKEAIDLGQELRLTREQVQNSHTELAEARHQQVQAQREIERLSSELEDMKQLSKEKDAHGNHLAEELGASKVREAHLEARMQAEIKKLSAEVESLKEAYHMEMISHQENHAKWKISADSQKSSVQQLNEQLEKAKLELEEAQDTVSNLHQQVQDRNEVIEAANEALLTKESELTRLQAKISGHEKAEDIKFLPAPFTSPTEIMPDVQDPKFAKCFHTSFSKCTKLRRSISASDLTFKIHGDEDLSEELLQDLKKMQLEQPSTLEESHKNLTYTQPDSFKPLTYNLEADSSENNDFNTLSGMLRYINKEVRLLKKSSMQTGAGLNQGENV
How it was run: as §1

Structure (SMILES): Nc1ncnc2c1ncn2[C@@H]1O[C@H](COP(=O)(O)OP(=O)(O)OP(=O)(O)O)[C@@H](O)[C@H]1O [adenosine triphosphate]
- NP40-soluble protein abundance ([1]; concentration: 1mM): 1.06 ± 0.017
- NP40-soluble protein abundance ([1]; concentration: 2mM): 0.96 ± 0.03
- NP40-soluble protein abundance ([1]; concentration: 4mM): 0.931 ± 0.025
- NP40-soluble protein abundance ([1]; concentration: 6mM): 0.966 ± 0.2
- NP40-soluble protein abundance ([1]; concentration: 8mM): 0.945 ± 0.096
- NP40-soluble protein abundance ([1]; concentration: 10mM): 0.911 ± 0.072
- NP40-soluble protein abundance ([2]; concentration: 1mM): 0.932 ± 0.047
- NP40-soluble protein abundance ([2]; concentration: 2mM): 0.974 ± 0.056
- NP40-soluble protein abundance ([2]; concentration: 4mM): 0.934 ± 0.023
- NP40-soluble protein abundance ([2]; concentration: 6mM): 0.867 ± 0.11
- NP40-soluble protein abundance ([2]; concentration: 8mM): 0.915 ± 0.011
- NP40-soluble protein abundance ([2]; concentration: 10mM): 0.953 ± 0.014
- NP40-soluble protein abundance ([3]; concentration: 1mM): 1.2 ± 0.12
- NP40-soluble protein abundance ([3]; concentration: 2mM): 1.23 ± 0.05
- NP40-soluble protein abundance ([3]; concentration: 4mM): 1.17 ± 0.11
- NP40-soluble protein abundance ([3]; concentration: 6mM): 1.19 ± 0.042
- NP40-soluble protein abundance ([3]; concentration: 8mM): 1.14 ± 0.17
- NP40-soluble protein abundance ([3]; concentration: 10mM): 1.18 ± 0.019
- NP40-soluble protein abundance ([4]; concentration: 1mM): 1.02 ± 0.044
- NP40-soluble protein abundance ([4]; concentration: 2mM): 0.956 ± 0.036
- NP40-soluble protein abundance ([4]; concentration: 4mM): 0.951 ± 0.037
- NP40-soluble protein abundance ([4]; concentration: 6mM): 0.957 ± 0.11
- NP40-soluble protein abundance ([4]; concentration: 8mM): 0.98 ± 0.089
- NP40-soluble protein abundance ([4]; concentration: 10mM): 0.96 ± 0.096
- NP40-soluble protein abundance ([5]; concentration: 1mM): 0.953 ± 0.035
- NP40-soluble protein abundance ([5]; concentration: 2mM): 0.946 ± 0.022
- NP40-soluble protein abundance ([5]; concentration: 4mM): 0.958 ± 0.015
- NP40-soluble protein abundance ([5]; concentration: 6mM): 0.997 ± 0.013
- NP40-soluble protein abundance ([5]; concentration: 8mM): 0.971 ± 0.039
- NP40-soluble protein abundance ([5]; concentration: 10mM): 0.95 ± 0.083
- NP40-soluble protein abundance ([6]; concentration: 1mM): 0.958 ± 0.0096
- NP40-soluble protein abundance ([6]; concentration: 2mM): 0.976 ± 0.032
- NP40-soluble protein abundance ([6]; concentration: 4mM): 0.931 ± 0.017
- NP40-soluble protein abundance ([6]; concentration: 6mM): 0.98 ± 0.051
- NP40-soluble protein abundance ([6]; concentration: 8mM): 0.94 ± 0.033
- NP40-soluble protein abundance ([6]; concentration: 10mM): 0.942 ± 0.055
- NP40-soluble protein abundance ([7]; concentration: 1mM): 0.924 ± 0.07
- NP40-soluble protein abundance ([7]; concentration: 2mM): 0.901 ± 0.034
- NP40-soluble protein abundance ([7]; concentration: 4mM): 0.858 ± 0.035
